Results taken from publication PMC10196829.
These are yes or no findings as the source states them, for the method shown. Binding seen in cells or lysates may run through a third protein. Some binding calls cover weakened binding; strength is not graded here.

Amino acid sequences for entries named in this document (tags omitted). Residues count along the entry.
UniProt P18564, residues 22-788: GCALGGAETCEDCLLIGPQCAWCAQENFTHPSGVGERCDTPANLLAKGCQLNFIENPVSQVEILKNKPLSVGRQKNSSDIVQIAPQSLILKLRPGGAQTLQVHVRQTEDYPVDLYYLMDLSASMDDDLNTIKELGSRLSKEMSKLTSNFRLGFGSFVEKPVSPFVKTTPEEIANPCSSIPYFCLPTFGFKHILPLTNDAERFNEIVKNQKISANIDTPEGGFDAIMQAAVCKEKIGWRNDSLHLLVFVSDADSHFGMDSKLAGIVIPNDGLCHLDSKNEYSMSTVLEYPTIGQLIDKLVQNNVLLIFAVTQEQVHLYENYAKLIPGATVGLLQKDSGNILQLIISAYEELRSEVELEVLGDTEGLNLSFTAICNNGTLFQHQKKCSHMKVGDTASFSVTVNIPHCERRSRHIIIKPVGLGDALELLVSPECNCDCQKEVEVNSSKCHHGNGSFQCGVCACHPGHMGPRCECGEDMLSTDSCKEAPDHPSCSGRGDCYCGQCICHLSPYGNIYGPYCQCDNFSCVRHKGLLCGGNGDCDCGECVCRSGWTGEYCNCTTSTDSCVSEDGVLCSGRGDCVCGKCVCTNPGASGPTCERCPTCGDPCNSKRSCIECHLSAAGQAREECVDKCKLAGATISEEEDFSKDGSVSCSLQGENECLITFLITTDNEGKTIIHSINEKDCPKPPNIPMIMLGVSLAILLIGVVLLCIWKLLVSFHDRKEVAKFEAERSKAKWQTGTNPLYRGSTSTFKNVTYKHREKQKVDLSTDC
UniProt P17301, residues 30-1181: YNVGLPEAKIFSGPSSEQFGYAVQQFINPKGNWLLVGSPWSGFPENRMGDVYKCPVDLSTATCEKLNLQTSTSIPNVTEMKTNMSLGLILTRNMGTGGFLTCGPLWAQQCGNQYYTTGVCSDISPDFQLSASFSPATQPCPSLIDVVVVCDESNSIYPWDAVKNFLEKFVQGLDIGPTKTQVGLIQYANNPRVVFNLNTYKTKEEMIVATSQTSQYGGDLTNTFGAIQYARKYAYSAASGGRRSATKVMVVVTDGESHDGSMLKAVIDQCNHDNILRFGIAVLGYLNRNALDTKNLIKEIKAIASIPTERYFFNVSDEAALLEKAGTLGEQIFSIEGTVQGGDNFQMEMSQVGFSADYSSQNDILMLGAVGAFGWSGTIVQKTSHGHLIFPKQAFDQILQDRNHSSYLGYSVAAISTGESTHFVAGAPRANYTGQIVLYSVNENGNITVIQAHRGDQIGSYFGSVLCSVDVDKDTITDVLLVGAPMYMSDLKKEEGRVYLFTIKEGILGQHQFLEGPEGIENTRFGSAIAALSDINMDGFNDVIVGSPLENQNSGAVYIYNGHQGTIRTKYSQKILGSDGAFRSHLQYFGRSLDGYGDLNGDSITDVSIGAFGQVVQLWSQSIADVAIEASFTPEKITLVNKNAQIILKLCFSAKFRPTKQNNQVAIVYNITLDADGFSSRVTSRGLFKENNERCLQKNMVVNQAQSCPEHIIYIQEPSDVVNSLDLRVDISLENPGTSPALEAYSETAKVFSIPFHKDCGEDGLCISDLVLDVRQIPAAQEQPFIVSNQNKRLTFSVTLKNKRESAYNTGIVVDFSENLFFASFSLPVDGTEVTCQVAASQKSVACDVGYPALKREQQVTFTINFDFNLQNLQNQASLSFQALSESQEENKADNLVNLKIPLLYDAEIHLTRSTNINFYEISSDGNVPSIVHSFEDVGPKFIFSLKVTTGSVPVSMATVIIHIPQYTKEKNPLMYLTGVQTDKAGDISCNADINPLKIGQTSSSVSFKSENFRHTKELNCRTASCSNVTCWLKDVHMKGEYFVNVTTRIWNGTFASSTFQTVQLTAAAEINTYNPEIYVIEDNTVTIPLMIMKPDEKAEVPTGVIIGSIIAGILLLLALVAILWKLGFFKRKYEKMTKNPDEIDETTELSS
UniProt P05107, residues 23-769: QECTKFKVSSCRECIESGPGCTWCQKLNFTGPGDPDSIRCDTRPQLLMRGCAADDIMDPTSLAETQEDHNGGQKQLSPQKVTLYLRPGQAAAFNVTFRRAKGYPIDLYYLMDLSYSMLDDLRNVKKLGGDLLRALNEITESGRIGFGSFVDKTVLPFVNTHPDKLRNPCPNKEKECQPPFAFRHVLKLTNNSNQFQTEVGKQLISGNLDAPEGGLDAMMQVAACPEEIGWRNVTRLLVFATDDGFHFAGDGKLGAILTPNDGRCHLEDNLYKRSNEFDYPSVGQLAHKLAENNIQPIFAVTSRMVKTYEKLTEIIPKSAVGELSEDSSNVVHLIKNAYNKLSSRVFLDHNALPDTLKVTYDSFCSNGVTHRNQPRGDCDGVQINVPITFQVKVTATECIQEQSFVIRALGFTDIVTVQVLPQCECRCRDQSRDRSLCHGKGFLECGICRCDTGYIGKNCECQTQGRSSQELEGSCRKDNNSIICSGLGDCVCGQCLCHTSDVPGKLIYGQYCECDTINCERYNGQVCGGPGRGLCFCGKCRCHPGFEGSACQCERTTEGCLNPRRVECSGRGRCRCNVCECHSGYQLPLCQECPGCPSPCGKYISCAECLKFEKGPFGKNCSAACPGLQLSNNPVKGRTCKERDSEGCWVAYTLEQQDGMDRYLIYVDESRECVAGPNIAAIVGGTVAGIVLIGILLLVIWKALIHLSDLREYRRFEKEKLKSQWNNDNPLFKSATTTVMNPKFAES

Columns and labels:
[1] = target: endogenous ITGB6 (A549 cells) (human (endogenous in A549)) (UniProt P18564); assay: condition: only with ITGB2 overexpressed in the A549 cells; co-IP; as a3, IP with ITGB6-specific antibody from A549 cells that overexpress ITGB2
[2] = target: endogenous ITGB6 (A549 cells) (human (endogenous in A549)) (UniProt P18564); assay: co-IP; extracts of A549 cells transfected with empty vector (Ctrl) or ITGB2; IP with ITGB6- or ITGB2-specific antibodies or IgG; Western blot; input 5%
ITGA2-HIS (human) = ITGA2-HIS (human) (UniProt P17301); assay: co-IP; extracts of MLE-12 cells co-transfected with ITGA2-HIS and ITGB2-YFP or ITGB6-GFP; IP with HIS-specific antibodies or IgG as control; protein-G-sepharose; Western blot; input 3%

Substance | binding [1] | binding [2] | binding (ITGA2-HIS (human))
endogenous EGFR, non-phosphorylated (A549 cells) (from UniProt P00533 25-1210) (receptor) | no binding | binds | 
ITGB6-GFP (in MLE-12 cells) (from UniProt P18564 22-788) (receptor) |  |  | binds
ITGB2-YFP (in MLE-12 cells) (from UniProt P05107 23-769) (receptor) |  |  | binds
